The values below are quoted from earlier work in patent US7476672B2, “Acetylenic compounds useful in treating inflammatory disorders” (Janssen Pharmaceutica N.V., priority 2002, dated 2009).

Each structure is given as a SMILES string. Like-named read-outs stand apart in the source and are kept apart here.

The data set has as its system potassium peroxochromate arthritis. As to conditions: mice, cited from earlier work.

`CN[C@@H]1C[C@H]2O[C@@](C)([C@@H]1OC)n1c3ccccc3c3c4c(c5c6ccccc6n2c5c31)C(=O)NC4` [staurosporine]: the “inhibition of the arthritis” value runs as follows: (100 nmol) 85%; (daily doses of 30 nmol/kg) 50%.
